No constants are given. Whether binding was seen depends on the method and setting. In cells and extracts the contact can be indirect. Some results given as binding are weak or reduced against the parent protein; the word gives no strength. Tags and fused reporters may be left off the sequences shown.

We go through two molecules from publication PMC5025857, “Redox-dependent Regulation of Gluconeogenesis by a Novel Mechanism Mediated by a Peroxidatic Cysteine of Peroxiredoxin” (Scientific Reports, 2016).

The test deals with T1, HA-tagged Pyk1 (HA-Pyk1) (S. cerevisiae, UniProt P00549 1-500).
T1 construct: Pyk1 (Cdc19), pyruvate kinase of S. cerevisiae; also called pRS313-HA-PYK1; source: S. cerevisiae (pyk1∆ tsa1/2∆ or pyk1∆ cells) carrying pRS313-HA-PYK1, in lysate (whole cell extract)
T1 sequence (looked up): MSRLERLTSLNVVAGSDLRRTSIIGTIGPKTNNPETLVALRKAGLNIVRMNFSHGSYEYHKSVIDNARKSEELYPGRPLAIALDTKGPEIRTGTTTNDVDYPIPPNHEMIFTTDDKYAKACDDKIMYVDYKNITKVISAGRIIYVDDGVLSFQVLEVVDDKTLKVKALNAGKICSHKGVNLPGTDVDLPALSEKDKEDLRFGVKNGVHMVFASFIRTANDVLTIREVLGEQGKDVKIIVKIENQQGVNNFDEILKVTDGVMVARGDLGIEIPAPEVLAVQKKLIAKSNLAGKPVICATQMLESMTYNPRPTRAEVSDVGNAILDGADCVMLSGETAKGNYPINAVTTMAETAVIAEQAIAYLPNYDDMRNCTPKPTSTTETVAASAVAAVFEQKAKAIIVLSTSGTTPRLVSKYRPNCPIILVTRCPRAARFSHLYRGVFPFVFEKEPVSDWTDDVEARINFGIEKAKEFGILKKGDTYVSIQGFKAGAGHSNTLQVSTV
In words: co-IP; HA-Pyk1 precipitated with anti-HA antibody beads from yeast whole cell extract (400 μg; IP buffer: 100 mM MES pH 7.0, 200 mM KCl, 15 mM MgCl2, 5% glycerol, 0.15% NP-40, 50 mM NEM; 4 °C, 3 h); immunoblot with anti-Tsa1, anti-Pyk1 and anti-Prx-SO2/SO3; cells from glucose (SDM) or ethanol (SEM -Trp) medium, exponential, diauxic shift or early stationary phase, with or without 1, 3 or 10 mM H2O2. Background: In western blotting, separated proteins are transferred to a membrane and probed.

B1: Tsa1^C171T (enzyme, S. cerevisiae, UniProt P34760 1-196, looked up)
chain: MVAQVQKQAPTFKKTAVVDGVFDEVSLDKYKGKYVVLAFIPLAFTFVCPTEIIAFSEAAKKFEEQGAQVLFASTDSEYSLLAWTNIPRKEGGLGPINIPLLADTNHSLSRDYGVLIEEEGVALRGLFIIDPKGVIRHITINDLPVGRNVDEALRLVEAFQWTDKNGTVLPTNWTPGAATIKPTVEDSKEYFEAANK
notes: Tsa1 of S. cerevisiae with the resolving cysteine Cys171 mutated to Thr; source: S. cerevisiae tsa1/2Δ cells carrying an expression vector (pRS315), in lysate
For B1, the binding result is on record as “binds”.

B2: Tsa1∆C (hyperoxidation-resistant mutant of Tsa1) (domain or fragment, UniProt P34760 1-179)
chain: MVAQVQKQAPTFKKTAVVDGVFDEVSLDKYKGKYVVLAFIPLAFTFVCPTEIIAFSEAAKKFEEQGAQVLFASTDSEYSLLAWTNIPRKEGGLGPINIPLLADTNHSLSRDYGVLIEEEGVALRGLFIIDPKGVIRHITINDLPVGRNVDEALRLVEAFQWTDKNGTVLPCNWTPGAAT
Take B2: the binding result is on record as “binds”.
